The text below walks through data of PMC3232451 (Nature structural & molecular biology, 2011).

In this assay the target is T1, His6-TBL1(1-90) (human, UniProt O60907-2 1-90).
T1 sequence (looked up): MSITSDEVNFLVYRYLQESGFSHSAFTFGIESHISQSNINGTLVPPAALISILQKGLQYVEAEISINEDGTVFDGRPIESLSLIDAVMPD
Kind of assay: fluorescence polarisation. Background: Fluorescence polarisation rises when a labelled molecule tumbles more slowly, as on binding a larger partner.

B1: BODIPY labeled chimeric GPS2(1-49)–SMRT(220-260) (peptide, UniProt Q13227 1-49, looked up)
chain: MPALLERPKLSNAMARALHRHIMMERERKRQEEEEVDKMMEQKMKEEQEESKHRSLVQIIYDENRKKAEAAHRILEGLGPQVELPLYNQP
modifications: BODIPY label (position not given)
What is called Kd is the equilibrium constant for the complex coming apart. For B1, the Kd was found to be 0.95 µM.
